Source: patent publication US20210332360
Negatives hold for the conditions tested. For part of these data: Tags and fusion partners may be left off the protein sequences shown. For part of these data: The exact form of at least one protein or probe is not confirmed.

Sequences of proteins named here, by UniProt entry; tags and fusion partners are left off. Residues count along the entry.
UniProt P05046, 33-285: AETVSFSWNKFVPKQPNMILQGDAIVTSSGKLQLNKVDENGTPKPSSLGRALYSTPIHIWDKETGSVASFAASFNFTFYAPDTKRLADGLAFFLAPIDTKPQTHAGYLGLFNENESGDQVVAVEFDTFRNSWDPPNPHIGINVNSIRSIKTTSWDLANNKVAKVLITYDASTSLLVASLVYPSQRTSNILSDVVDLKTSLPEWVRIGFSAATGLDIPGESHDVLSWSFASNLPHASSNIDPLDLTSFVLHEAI

Columns and labels:
Assay in all cases: binding assay
[1] = biological target: T1, Sophora japonica lectin (SJA) (Sophora japonica) (UniProt P93535); details: after the 5' primer region all dT replaced by 4 (alpha-D-mannose-triazole-modified C8-alkyne-dU); natural dC; lectin array 0.04-400 nM; only ConA gave strong signal; purified native protein; protein details: RayBiotech Lectin Array 40; label: particle-displayed, or 5'-biotinTEG; single-stranded DNA; variant of 3-1
T1 sequence (looked up, limits assumed): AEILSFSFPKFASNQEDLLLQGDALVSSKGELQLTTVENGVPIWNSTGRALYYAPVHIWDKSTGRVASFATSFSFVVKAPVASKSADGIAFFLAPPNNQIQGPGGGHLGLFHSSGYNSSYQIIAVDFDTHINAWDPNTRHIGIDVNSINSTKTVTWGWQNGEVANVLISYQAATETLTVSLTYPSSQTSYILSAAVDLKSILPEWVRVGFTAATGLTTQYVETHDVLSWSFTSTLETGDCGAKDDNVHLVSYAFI

[2] = biological target: T2, Peanut agglutinin (PNA) (Arachis hypogaea) (UniProt P02872); details: after the 5' primer region all dT replaced by 4 (alpha-D-mannose-triazole-modified C8-alkyne-dU); natural dC; lectin array 0.04-400 nM; only ConA gave strong signal; purified native protein; protein details: RayBiotech Lectin Array 40; label: particle-displayed, or 5'-biotinTEG; single-stranded DNA; variant of 3-1
T2 sequence (looked up, limits assumed): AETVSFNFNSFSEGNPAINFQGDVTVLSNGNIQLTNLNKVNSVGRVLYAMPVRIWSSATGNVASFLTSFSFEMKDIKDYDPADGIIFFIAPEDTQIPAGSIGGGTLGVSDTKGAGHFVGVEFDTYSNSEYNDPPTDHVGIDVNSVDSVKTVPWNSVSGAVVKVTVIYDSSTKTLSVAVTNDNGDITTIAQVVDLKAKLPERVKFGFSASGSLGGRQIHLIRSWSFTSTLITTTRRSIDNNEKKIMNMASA

[3] = biological target: T3, Solanum tuberosum lectin (STL) (Solanum tuberosum) (UniProt Q9S8M0); details: after the 5' primer region all dT replaced by 4 (alpha-D-mannose-triazole-modified C8-alkyne-dU); natural dC; lectin array 0.04-400 nM; only ConA gave strong signal; purified native protein; protein details: RayBiotech Lectin Array 40; label: particle-displayed, or 5'-biotinTEG; single-stranded DNA; variant of 3-1
T3 sequence (looked up, limits assumed): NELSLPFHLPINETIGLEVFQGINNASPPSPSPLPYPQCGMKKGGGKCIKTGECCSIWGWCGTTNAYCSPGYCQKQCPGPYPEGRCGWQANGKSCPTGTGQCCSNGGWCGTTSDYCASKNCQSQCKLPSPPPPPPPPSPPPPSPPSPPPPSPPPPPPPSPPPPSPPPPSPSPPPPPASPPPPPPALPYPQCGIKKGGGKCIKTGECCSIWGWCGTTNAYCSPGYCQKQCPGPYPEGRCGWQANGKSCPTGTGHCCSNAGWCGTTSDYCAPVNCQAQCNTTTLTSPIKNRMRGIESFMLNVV

[4] = test system: Sambucus nigra lectin II (SNA-II) (Sambucus nigra); details: after the 5' primer region all dT replaced by 4 (alpha-D-mannose-triazole-modified C8-alkyne-dU); natural dC; lectin array 0.04-400 nM; only ConA gave strong signal; purified native protein; protein details: RayBiotech Lectin Array 40; label: particle-displayed, or 5'-biotinTEG; single-stranded DNA; variant of 3-1
[5] = test system: Griffonia simplicifolia lectin I (GS-I) (Griffonia simplicifolia); details: after the 5' primer region all dT replaced by 4 (alpha-D-mannose-triazole-modified C8-alkyne-dU); natural dC; lectin array 0.04-400 nM; only ConA gave strong signal; purified native protein; protein details: RayBiotech Lectin Array 40; label: particle-displayed, or 5'-biotinTEG; single-stranded DNA; variant of 3-1
[6] = test system: Allium sativum agglutinin (ASA) (Allium sativum); details: after the 5' primer region all dT replaced by 4 (alpha-D-mannose-triazole-modified C8-alkyne-dU); natural dC; lectin array 0.04-400 nM; only ConA gave strong signal; purified native protein; protein details: RayBiotech Lectin Array 40; label: particle-displayed, or 5'-biotinTEG; single-stranded DNA; variant of 3-1
[7] = biological target: T4, Maclura pomifera lectin (MPL) (Maclura pomifera) (UniProt P18674); details: after the 5' primer region all dT replaced by 4 (alpha-D-mannose-triazole-modified C8-alkyne-dU); natural dC; lectin array 0.04-400 nM; only ConA gave strong signal; purified native protein; protein details: RayBiotech Lectin Array 40; label: particle-displayed, or 5'-biotinTEG; single-stranded DNA; variant of 3-1
T4 sequence (looked up, limits assumed): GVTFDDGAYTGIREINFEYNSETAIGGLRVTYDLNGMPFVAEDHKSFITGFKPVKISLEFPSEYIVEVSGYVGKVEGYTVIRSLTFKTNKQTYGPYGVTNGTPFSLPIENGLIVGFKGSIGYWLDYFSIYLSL

[8] = biological target: Soybean agglutinin (SBA) (Glycine max) (UniProt P05046); details: after the 5' primer region all dT replaced by 4 (alpha-D-mannose-triazole-modified C8-alkyne-dU); natural dC; lectin array 0.04-400 nM; only ConA gave strong signal; purified native protein; protein details: RayBiotech Lectin Array 40; label: particle-displayed, or 5'-biotinTEG; single-stranded DNA; variant of 3-1
[9] = biological target: T5, Anguilla anguilla lectin (AAA) (Anguilla anguilla) (UniProt Q7SIC1); details: after the 5' primer region all dT replaced by 4 (alpha-D-mannose-triazole-modified C8-alkyne-dU); natural dC; lectin array 0.04-400 nM; only ConA gave strong signal; purified native protein; protein details: RayBiotech Lectin Array 40; label: particle-displayed, or 5'-biotinTEG; single-stranded DNA; variant of 3-1
T5 sequence (looked up, limits assumed): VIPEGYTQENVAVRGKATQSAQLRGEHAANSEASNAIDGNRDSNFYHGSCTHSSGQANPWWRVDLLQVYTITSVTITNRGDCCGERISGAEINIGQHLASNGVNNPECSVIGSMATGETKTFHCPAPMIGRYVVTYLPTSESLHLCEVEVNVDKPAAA

[10] = test system: Lycopersicon esculentum lectin (LEA) (Lycopersicon esculentum); details: after the 5' primer region all dT replaced by 4 (alpha-D-mannose-triazole-modified C8-alkyne-dU); natural dC; lectin array 0.04-400 nM; only ConA gave strong signal; purified native protein; protein details: RayBiotech Lectin Array 40; label: particle-displayed, or 5'-biotinTEG; single-stranded DNA; variant of 3-1
[11] = biological target: T6, AIA (Artocarpus integrifolia) (UniProt P18670); details: after the 5' primer region all dT replaced by 4 (alpha-D-mannose-triazole-modified C8-alkyne-dU); natural dC; lectin array 0.04-400 nM; only ConA gave strong signal; purified native protein; protein details: RayBiotech Lectin Array 40; label: particle-displayed, or 5'-biotinTEG; single-stranded DNA; variant of 3-1
T6 sequence (looked up, limits assumed): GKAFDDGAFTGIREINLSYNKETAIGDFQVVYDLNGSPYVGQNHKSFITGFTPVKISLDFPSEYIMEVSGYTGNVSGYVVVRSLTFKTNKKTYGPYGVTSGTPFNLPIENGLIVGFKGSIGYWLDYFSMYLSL

[12] = biological target: T7, Maackia amurensis lectin I (MAA) (Maackia amurensis) (UniProt P0DKL3); details: after the 5' primer region all dT replaced by 4 (alpha-D-mannose-triazole-modified C8-alkyne-dU); natural dC; lectin array 0.04-400 nM; only ConA gave strong signal; purified native protein; protein details: RayBiotech Lectin Array 40; label: particle-displayed, or 5'-biotinTEG; single-stranded DNA; variant of 3-1
T7 sequence (looked up, limits assumed): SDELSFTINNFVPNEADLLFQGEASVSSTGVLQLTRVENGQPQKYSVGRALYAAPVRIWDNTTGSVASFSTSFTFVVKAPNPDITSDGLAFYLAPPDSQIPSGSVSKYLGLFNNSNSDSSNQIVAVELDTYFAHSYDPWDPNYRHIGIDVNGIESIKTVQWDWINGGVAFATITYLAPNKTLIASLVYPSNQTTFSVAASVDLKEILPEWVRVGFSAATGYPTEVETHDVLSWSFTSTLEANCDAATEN

[13] = biological target: T8, Vicia villosa lectin (VVA) (Vicia villosa) (UniProt P56625); details: after the 5' primer region all dT replaced by 4 (alpha-D-mannose-triazole-modified C8-alkyne-dU); natural dC; lectin array; signal judged false positive (present without 3-1m); purified native protein; protein details: RayBiotech Lectin Array 40; label: particle-displayed, or 5'-biotinTEG; single-stranded DNA; variant of 3-1
T8 sequence (looked up, limits assumed): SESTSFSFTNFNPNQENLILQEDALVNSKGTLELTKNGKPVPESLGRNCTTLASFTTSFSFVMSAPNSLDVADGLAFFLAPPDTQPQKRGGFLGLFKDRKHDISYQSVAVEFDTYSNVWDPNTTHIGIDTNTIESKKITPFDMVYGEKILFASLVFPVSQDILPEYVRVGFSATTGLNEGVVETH

[14] = biological target: T9, Dolichos biflorus lectin (DBA) (Dolichos biflorus) (UniProt P05045); details: after the 5' primer region all dT replaced by 4 (alpha-D-mannose-triazole-modified C8-alkyne-dU); natural dC; lectin array 0.04-400 nM; only ConA gave strong signal; purified native protein; protein details: RayBiotech Lectin Array 40; label: particle-displayed, or 5'-biotinTEG; single-stranded DNA; variant of 3-1
T9 sequence (looked up, limits assumed): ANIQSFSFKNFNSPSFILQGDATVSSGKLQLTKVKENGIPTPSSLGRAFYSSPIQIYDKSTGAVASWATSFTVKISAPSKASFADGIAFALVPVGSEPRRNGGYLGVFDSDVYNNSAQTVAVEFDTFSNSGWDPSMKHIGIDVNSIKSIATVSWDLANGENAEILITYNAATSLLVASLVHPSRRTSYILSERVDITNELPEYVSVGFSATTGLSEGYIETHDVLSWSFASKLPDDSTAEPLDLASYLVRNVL

[15] = biological target: T10, Ulex europaeus lectin II (UEA-II) (Ulex europaeus) (UniProt P22973); details: after the 5' primer region all dT replaced by 4 (alpha-D-mannose-triazole-modified C8-alkyne-dU); natural dC; lectin array 0.04-400 nM; only ConA gave strong signal; purified native protein; protein details: RayBiotech Lectin Array 40; label: particle-displayed, or 5'-biotinTEG; single-stranded DNA; variant of 3-1
T10 sequence (looked up, limits assumed): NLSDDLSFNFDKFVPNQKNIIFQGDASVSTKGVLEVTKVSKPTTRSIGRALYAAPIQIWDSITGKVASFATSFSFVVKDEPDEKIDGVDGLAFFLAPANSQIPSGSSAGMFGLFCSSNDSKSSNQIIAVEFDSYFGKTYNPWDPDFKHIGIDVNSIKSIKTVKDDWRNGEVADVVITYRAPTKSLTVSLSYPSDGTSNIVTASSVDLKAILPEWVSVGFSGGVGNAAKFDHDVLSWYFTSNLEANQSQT

Measured: binding result

GATCCCAGTCCGAAGTAATCGTTGCATCTGCACGACTGGTGAGCTTGAGTGGCAGAAGAACTTGTGCAAACGGCTATAGG [3-1m]
no binding: all assays above
